PubChem BioAssay AID1224831, NIAID – 2016
Shown is a random part of about 3,500 deposited reagents. 731 of all reagents (21%) were called active. 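Active means either lowered or raised reporter signal; the gene-median score did not drive the per-siRNA calls.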 The numbers tell different reagents against one gene apart.

Screen: 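Confirming genome-wide hits on LPS-triggered TNF-alpha induction with independent siRNA sequences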 (follow-up of hits)
Cell system: human THP-1 B5 monocytic leukaemia cells carrying a TNF promoter luciferase reporter, made macrophage-like with PMA
Reagents: single siRNA against human genes, 50 nM
Duration: about 68 h of knock-down, then 4 h LPS
Treatment: LPS (Salmonella minnesota, TLR-grade) at 10 ng/ml for 4 h; PMA 5 ng/ml present during knock-down
Detection: 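TNF promoter reporter read as dual luciferase ratio after 4 h LPS, normalised per plate to its median, given as replicate mean robust z-score per siRNA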
Reading the numbers: TNF reporter z-score: higher = stronger LPS-induced TNF reporter signal; z-score, median over gene's siRNAs: higher = stronger TNF reporter signal across the gene's siRNAs
Rule for the call: 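Active when the replicate mean z-score is about -1 or lower, or about 1.5 or higher; lowered and raised TNF reporter signal both count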
Calls: active = changed TNF reporter (either direction); inactive = little change

no.	Gene	reagent no.	TNF reporter z-score, replicate mean	z-score, median over gene's siRNAs	call
1	CCDC78 (GeneID 124093)	1	-0.29	-0.495	inactive
2	CCDC78 (GeneID 124093)	2	-1.52	-0.495	active
3	CCDC78 (GeneID 124093)	3	0.19	-0.495	inactive
4	CCDC78 (GeneID 124093)	4	-0.9	-0.495	inactive
5	CCDC78 (GeneID 124093)	5	-0.7	-0.495	inactive
6	CCDC78 (GeneID 124093)	6	0.16	-0.495	inactive
7	NR4A1 (GeneID 3164)	1	0.31	-0.085	inactive
8	NR4A1 (GeneID 3164)	2	0.84	-0.085	inactive
9	NR4A1 (GeneID 3164)	3	-0.48	-0.085	inactive
10	NR4A1 (GeneID 3164)	4	1.15	-0.085	inactive
11	NR4A1 (GeneID 3164)	5	-0.74	-0.085	inactive
12	NR4A1 (GeneID 3164)	6	-0.88	-0.085	inactive
13	NEXMIF (GeneID 340533)	1	1.56	0.23	active
14	NEXMIF (GeneID 340533)	2	-0.15	0.23	inactive
15	NEXMIF (GeneID 340533)	3	1.08	0.23	inactive
16	NEXMIF (GeneID 340533)	4	0.19	0.23	inactive
17	NEXMIF (GeneID 340533)	5	0.27	0.23	inactive
18	NEXMIF (GeneID 340533)	6	0.08	0.23	inactive
19	NKRF (GeneID 55922)	1	0.49	0.15	inactive
20	NKRF (GeneID 55922)	2	-0.64	0.15	inactive
21	NKRF (GeneID 55922)	3	-0.19	0.15	inactive
22	NKRF (GeneID 55922)	4	1.67	0.15	active
23	NKRF (GeneID 55922)	5	0.54	0.15	inactive
24	NKRF (GeneID 55922)	6	-0.62	0.15	inactive
25	MR1 (GeneID 3140)	1	1.42	-0.165	inactive
26	MR1 (GeneID 3140)	2	-0.08	-0.165	inactive
27	MR1 (GeneID 3140)	3	0.66	-0.165	inactive
28	MR1 (GeneID 3140)	4	-0.25	-0.165	inactive
29	MR1 (GeneID 3140)	5	-0.81	-0.165	inactive
30	MR1 (GeneID 3140)	6	-0.36	-0.165	inactive
31	SOWAHB (GeneID 345079)	1	-1.45	-0.81	active
32	SOWAHB (GeneID 345079)	2	0.94	-0.81	inactive
33	SOWAHB (GeneID 345079)	3	1.22	-0.81	inactive
34	SOWAHB (GeneID 345079)	4	-1.09	-0.81	active
35	SOWAHB (GeneID 345079)	5	-1.12	-0.81	active
36	SOWAHB (GeneID 345079)	6	-0.53	-0.81	inactive
37	BOK (GeneID 666)	1	-1.48	-0.49	active
38	BOK (GeneID 666)	2	-0.53	-0.49	inactive
39	BOK (GeneID 666)	3	-0.92	-0.49	inactive
40	BOK (GeneID 666)	4	-0.36	-0.49	inactive
41	BOK (GeneID 666)	5	0.87	-0.49	inactive
42	BOK (GeneID 666)	6	-0.45	-0.49	inactive
43	PDCD6 (GeneID 10016)	1	-0.41	0.105	inactive
44	PDCD6 (GeneID 10016)	2	0.12	0.105	inactive
45	PDCD6 (GeneID 10016)	3	-0.02	0.105	inactive
46	PDCD6 (GeneID 10016)	4	0.09	0.105	inactive
47	PDCD6 (GeneID 10016)	5	0.57	0.105	inactive
48	PDCD6 (GeneID 10016)	6	1.66	0.105	active
49	PCDHA13 (GeneID 56136)	1	0.5	0.34	inactive
50	PCDHA13 (GeneID 56136)	2	0.62	0.34	inactive
51	PCDHA13 (GeneID 56136)	3	0.18	0.34	inactive
52	PCDHA13 (GeneID 56136)	4	-0.89	0.34	inactive
53	PCDHA13 (GeneID 56136)	5	0.58	0.34	inactive
54	PCDHA13 (GeneID 56136)	6	-0.11	0.34	inactive
55	ABHD10 (GeneID 55347)	1	0.27	0.15	inactive
56	ABHD10 (GeneID 55347)	2	-0.01	0.15	inactive
57	ABHD10 (GeneID 55347)	3	1.22	0.15	inactive
58	ABHD10 (GeneID 55347)	4	-0.38	0.15	inactive
59	ABHD10 (GeneID 55347)	5	0.28	0.15	inactive
60	ABHD10 (GeneID 55347)	6	0.03	0.15	inactive

Entries listed so far whose target name starts with B or b (6):
Gene	reagent no.	TNF reporter z-score, replicate mean	z-score, median over gene's siRNAs	call
BOK (GeneID 666)	1	-1.48	-0.49	active
BOK (GeneID 666)	2	-0.53	-0.49	inactive
BOK (GeneID 666)	3	-0.92	-0.49	inactive
BOK (GeneID 666)	4	-0.36	-0.49	inactive
BOK (GeneID 666)	5	0.87	-0.49	inactive
BOK (GeneID 666)	6	-0.45	-0.49	inactive
